# In all, about 260,000 compounds went through this assay and about 1,500 (0.58%) were called active. The shares of active, inactive and inconclusive entries below differ from those in the screen.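 Rule for the calls: active = inhibition above a set limit at one or more doses, reproduced on every date tested; inconclusive = results disagree between test dates, or hit never tested in dose response; inactive = the rest.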
# The chains behind the UniProt entries cited, without tags or fusion partners. Where a name states a change or a piece, a line headed by the entry shows the natural chain unless it says otherwise.
# UniProt P69720: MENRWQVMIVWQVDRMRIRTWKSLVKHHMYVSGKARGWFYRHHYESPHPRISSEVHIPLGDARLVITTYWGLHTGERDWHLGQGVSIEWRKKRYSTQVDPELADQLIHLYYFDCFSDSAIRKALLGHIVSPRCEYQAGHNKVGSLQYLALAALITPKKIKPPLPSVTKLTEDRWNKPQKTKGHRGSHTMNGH
# UniProt P69721: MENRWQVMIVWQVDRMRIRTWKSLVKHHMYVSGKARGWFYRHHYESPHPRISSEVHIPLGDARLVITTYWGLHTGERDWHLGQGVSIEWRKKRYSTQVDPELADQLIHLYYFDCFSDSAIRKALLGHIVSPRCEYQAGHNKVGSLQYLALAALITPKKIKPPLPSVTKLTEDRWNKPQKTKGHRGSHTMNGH
# UniProt P69722: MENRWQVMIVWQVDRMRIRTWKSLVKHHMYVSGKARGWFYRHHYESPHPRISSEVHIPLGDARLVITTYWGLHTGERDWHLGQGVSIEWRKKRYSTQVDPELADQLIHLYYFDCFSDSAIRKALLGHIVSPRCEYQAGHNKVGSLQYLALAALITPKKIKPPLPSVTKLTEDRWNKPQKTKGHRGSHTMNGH
# UniProt P69723: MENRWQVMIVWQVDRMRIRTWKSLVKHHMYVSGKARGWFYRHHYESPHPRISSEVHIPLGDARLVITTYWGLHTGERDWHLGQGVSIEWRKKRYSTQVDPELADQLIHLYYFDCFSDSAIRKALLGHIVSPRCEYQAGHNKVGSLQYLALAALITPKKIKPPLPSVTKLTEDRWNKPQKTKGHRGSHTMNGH
# UniProt Q9HC16: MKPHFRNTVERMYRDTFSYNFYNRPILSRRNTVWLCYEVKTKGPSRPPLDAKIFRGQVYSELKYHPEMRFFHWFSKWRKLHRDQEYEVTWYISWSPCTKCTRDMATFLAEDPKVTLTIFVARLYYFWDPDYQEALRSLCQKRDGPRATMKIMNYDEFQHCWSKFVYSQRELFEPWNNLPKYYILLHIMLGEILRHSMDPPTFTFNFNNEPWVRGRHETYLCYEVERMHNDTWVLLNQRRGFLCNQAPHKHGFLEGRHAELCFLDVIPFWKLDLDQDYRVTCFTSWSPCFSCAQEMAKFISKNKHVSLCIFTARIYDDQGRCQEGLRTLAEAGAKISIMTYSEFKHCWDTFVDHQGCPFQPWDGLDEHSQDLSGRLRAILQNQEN
# Molecular target: Virion infectivity factor (Human immunodeficiency virus type 1 group M subtype B (isolate BH10)) + Virion infectivity factor (Human immunodeficiency virus type 1 group M subtype B (isolate BRU/LAI)) + Virion infectivity factor (Human immunodeficiency virus type 1 group M subtype B (isolate PCV12)) + Virion infectivity factor (Human immunodeficiency virus type 1 group M subtype B (isolate HXB2)) + DNA dC->dU-editing enzyme APOBEC-3G (Homo sapiens) (UniProt P69720+P69721+P69722+P69723+Q9HC16)
# Assay: inhibitors of Vif binding to APOBEC3G peptide, primary screen, biochemical, TR-FRET, GST-Vif 1-94, biotin-A3G peptide, dose response retest (AID 1117319);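 note: Vif residues 1-94 fused to GST binding biotinylated APOBEC3G peptide 110-148; 0% = full assay without inhibitor and 100% = GST in place of GST-Vif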
# Conditions: stronger effect = higher value
row,Compound,inhibition
1,N#Cc1cccc(NC(=O)Cc2ccsc2)c1,inactive: 5.18%
2,NC(=O)c1nc(-c2ccco2)nc2c1[nH]c(=O)n2-c1ccc(Cl)c(Cl)c1,inconclusive: 39.9%
3,Cc1ccc(CNc2ccc(N3CCOCC3)cc2)s1,inconclusive: 45%
4,CC1CCN(C(=O)c2ccc(CNc3c(N4CCCC4)c(=O)c3=O)cc2)CC1,inactive: 5.36%
5,Cc1cc(-n2c(C)cc(C(=O)CCl)c2C)no1,inconclusive: 60.3%
6,CC(=O)OCC1=C(C(=O)O)N2C(=O)[C@@H](NC(=O)Cc3cccs3)[C@H]2SC1,inconclusive: 52.7%
7,C=C(C)CNC(=S)N1CCNC(=O)C1CC(=O)OC (centres undefined),inconclusive: 47.5%
8,COc1ccc2c(c1O)C(=O)c1ccccc1C2=O,inactive: 23.1%
9,COc1ccc(C2=CC3=C(Br)C(=O)C(C)(OC(=O)C4CCCC4)C(=O)C3=CO2)cc1 (centres undefined),inconclusive: 41%
10,O=C(O)c1ccccc1N/N=C/C1=C(N2CCOCC2)C(=C\c2ccccc2)/CC1,inconclusive: 33.2%
11,CCCN1CNC(=S)N(c2cccc(C)c2)C1,inconclusive: 36.2%
12,COc1ccc2occ(C(=O)c3coc4ccc(O)c(CN(C)C)c34)c2c1,inconclusive: 36.7%
13,CC1=C(C(=O)OCC(Cl)(Cl)Cl)N2C(=O)C(NC(=O)Cc3ccccc3)C2SC1 (centres undefined),inactive: 67.2%
14,CSc1nsc(/C=C/Nc2ccc(C)cc2)c1C#N,inconclusive: 60.7%
15,CN(C)c1ccc(C2CC(=O)C=C(Nc3ccccc3N)C2)cc1 (centres undefined),inconclusive: 51.5%
16,CN1CCN(C(=O)C2=C[C@@H](c3ccc(C(F)(F)F)cc3)C[C@@H](OCc3ccc(CO)cc3)O2)CC1,inconclusive: 33.5%
17,O=C(Nc1ccc2c(c1)OCCO2)c1ccc(Br)c(S(=O)(=O)N2CCOCC2)c1,inconclusive: 43.6%
18,c1cncc(-c2nnc3n2C2(CCCCC2)Cc2ccccc2-3)c1,inconclusive: 42.3%
19,CC(=O)N1CCC2(CC1)CC(=O)c1cc(OCC(=O)NCc3ccc(C)cc3)ccc1O2,inconclusive: 44.3%
20,C=CCn1c(C)cc(C2=NNC(=NCC)SC2)c1C,inconclusive: 62.6%
21,CCCOc1cccc(NC(=O)c2c(-c3ccccc3)noc2C)c1,inconclusive: 33.3%
22,CCOc1ccccc1N(CC(=O)N/N=C(\C)c1cccc(Br)c1)S(C)(=O)=O,inconclusive: 35.3%
23,CC(C)NC(=O)Cn1nnc(-c2cccc(NC(=O)c3ccccc3F)c2)n1,inconclusive: 40.5%
24,O=C1CCCC2=C1C(c1ccc(O)c(O)c1)Nc1ccc3ncccc3c12 (centres undefined),inconclusive: 59.4%

# Exported as tab-separated lines: entries from further up.
row	Compound	inhibition
3	Cc1ccc(CNc2ccc(N3CCOCC3)cc2)s1	inconclusive: 45%
14	CSc1nsc(/C=C/Nc2ccc(C)cc2)c1C#N	inconclusive: 60.7%
